In PubChem BioAssay AID602346 (Broad Institute, 2012):
Out of some 340,000 compounds screened, about 1,200 (0.35%) were called active. Inconclusive means that the source gave no clear call. Such entries were picked first, then a sample of the others. Rule as the data show it: active = inhibition above about 50% (passing the limit was not always enough); inconclusive = no clear call, values can overlap the other calls; inactive = below about 31%.

Assay: blockers of Vif multimerization in cells – imaging, HEK293T, single point, primary screen (AID 602346)
Conditions: Vif self-association by quenched fluorescence, 24 h, at 7.49 µM, active compounds read high
With `CC(=Nc1ccccc1)C1=C(O)C(Cc2ccccc2)NC1=O` (configuration not stated) the inhibition was inconclusive: 34.5%.
With `COc1cc(/C=C/C(=O)OCC(=O)Nc2ccc(Cl)cn2)ccc1O` the inhibition was inconclusive: 49.3%.
With `Cc1c(NC(=O)COc2ccccc2Cl)c(=O)n(-c2ccccc2)n1C` the inhibition was inconclusive: 18.9%.
With `CC[C@@H]1C=C(C(=O)O)[C@H](c2ccc3c(c2)OCO3)N1S(=O)(=O)c1ccc(C)cc1` the inhibition was inactive: 0.72%.
With `Cc1cc(OCC(C)C)ccc1/C(O)=C1/C(=O)C(=O)N(Cc2cccnc2)C1c1ccncc1` (configuration not stated) the inhibition was active: 53.9%.
In the case of `Cc1cc(C)c(C(=O)N(C)C2CCCN(Cc3ccccc3F)C2)o1` (configuration not stated), the inhibition is reported as inactive: 2.83%.
With `CCCN1C=CC(=CC=C(C#N)C#N)C=C1` the inhibition was inconclusive: 43.1%.
With `O=C(O)c1ccc(COc2c(F)c(F)cc(F)c2F)cc1` the inhibition was inconclusive: 24.2%.
For `COc1ccccc1/C=C/C(=O)OC(C)CN1CCCCC1` (configuration not stated), the inhibition was inconclusive: 35.6%.
With `CCOC(=O)CC(=O)CSc1ncnc2c1oc1ccccc12` the inhibition was active: 56.5%.
With `CCc1ccc(/C(C)=N/NC(=O)c2ccccn2)cc1` the inhibition was inactive: 3.72%.
In the case of `Cc1ccc(C2N(C)c3ccccc3-c3nc4ccccc4n32)o1` (configuration not stated), the inhibition is reported as inconclusive: 36.8%.
For `O=C(COC(=O)c1ccc(S(=O)(=O)N2CCCC2)cc1)NCCc1ccc(F)cc1`, the inhibition was inconclusive: 34.7%.
In the case of `O=C(NNC(=S)Nc1ccccc1)c1cccc(Br)c1`, the inhibition is reported as inactive: -8.62%.
In the case of `Cc1c(CC(C)C)nc(N)c(C#N)c1-c1ccccc1`, the inhibition is reported as inconclusive: 44.3%.
With `CCCCCc1ccc(-c2cn(CN3C(=O)c4ccccc4C3=O)nn2)cc1` the inhibition was active: 65.4%.
With `Cc1ccccc1Nc1nnc(C)c(=O)n1N` the inhibition was inconclusive: 34.2%.
In the case of `CCN(CC)S(=O)(=O)c1ccc(C)c(NC(=O)CNc2cccc(S(=O)(=O)N3CCCC3)c2)c1`, the inhibition is reported as inactive: -6.56%.
With `CSCCC(NC(=O)c1ccccc1Br)C(=O)NNC(=O)C1COc2ccccc2O1` (configuration not stated) the inhibition was inconclusive: 29%.
For `C=C1C(=O)C=C2CN(C(=O)c3ccccc3)[C@@](Cc3ccc(F)cc3)(C(=O)OC)[C@@H]12`, the inhibition was inconclusive: 47.2%.
With `O=C(OCc1cn([C@H]2C[C@H](c3ccc(Cl)cc3)N(Cc3cccs3)C[C@@H]2O)nn1)c1ccccc1` the inhibition was inactive: -3.03%.
For `C=CCNC(=S)NC(=O)c1oc2ccccc2c1C`, the inhibition was inactive: 2.06%.
With `CCOC(=O)N1CCN(C(=O)c2ccc3c(c2)sc2nc(-c4ccc(OC)cc4)cn23)CC1` the inhibition was inconclusive: 20.5%.
In the case of `Cc1noc(C)c1NC(=O)N(C)C[C@H]1OCc2cnnn2CCCC(=O)N([C@H](C)CO)C[C@H]1C`, the inhibition is reported as inactive: 6.2%.
With `CCCc1cc(=O)oc2cc(OCC(=O)Nc3ccc(CN4CCOCC4)cc3)c(Cl)cc12` the inhibition was inconclusive: 46.9%.
In the case of `CCOc1ccc(OCC)c(S(=O)(=O)NCc2ccccc2)c1`, the inhibition is reported as active: 55.4%.
With `Cc1ccc2nc3c(cc(C(=O)NCC4CCCO4)c(=N)n3CCCOC(C)C)c(=O)n2c1` (configuration not stated) the inhibition was inconclusive: 27.1%.
In the case of `Cc1ccsc1/C=N/NC(=O)c1nnn(-c2nonc2N)c1-c1ccccc1`, the inhibition is reported as inconclusive: 43.6%.
For `CC(C)NC(=O)c1cc(C2CCCCN2S(=O)(=O)c2ccc(C#N)cc2)on1` (configuration not stated), the inhibition was inconclusive: 35.5%.
In the case of `N#Cc1ccccc1Cn1cc(/C=N/Nc2ccc([N+](=O)[O-])cn2)c2ccccc21`, the inhibition is reported as active: 158%.
With `COc1ccccc1CNC(=O)[C@H](CCSC)NC(=O)[C@@H]1Cc2ccccc2CN1` the inhibition was inconclusive: 47.1%.
With `COc1ccc(N2CCN(CCC(O)c3ccc4ccccc4c3)CC2)cc1` (configuration not stated) the inhibition was inactive: 2.97%.
With `COc1cccc(OC)c1OCCCSc1nc(C)cc(=O)[nH]1` the inhibition was inconclusive: 41.2%.
For `Cc1ccccc1NC(=S)NC(C)C(c1ccccc1)N1CCN(C)CC1` (configuration not stated), the inhibition was inconclusive: 36.5%.
With `CCn1c(SCc2nc(-c3ccccc3)no2)nnc1-c1cccs1` the inhibition was inconclusive: 20.3%.
For `O=S(=O)(c1ccccc1)c1nnn2c1nc(NC1CCN(Cc3ccccc3)CC1)c1cc(Cl)ccc12`, the inhibition was inactive: -2.08%.
With `C[C@H](NS(=O)(=O)c1c(Cl)cccc1Cl)C(=O)NNC(=O)COc1ccccc1F` the inhibition was active: 52.5%.
For `Clc1cc2c(c(CSc3nc4ccccc4n4cccc34)c1)OCOC2`, the inhibition was active: 76.2%.
For `CCN1CCN(c2ccc(S(=O)(=O)N3CCCCC3)cc2NC(=O)/C=C/c2ccc(OC)c(OC)c2)CC1`, the inhibition was inconclusive: 34.8%.
For `Cn1nc(C(=O)N2CCN(c3ccccc3F)CC2)c2c1-c1ccccc1S(=O)(=O)C2`, the inhibition was inconclusive: 41%.
In the case of `COc1cc2ccccc2cc1C(=O)Nc1ccc(Cl)cn1`, the inhibition is reported as active: 83.6%.
For `O=C(Cc1ccc(Br)cc1)OCC(=O)c1ccc[nH]1`, the inhibition was inconclusive: 28.1%.
With `CCOc1ccc(-n2c(SCC(=O)Nc3ccc(CC)cc3)nc3n[nH]c(C)c3c2=N)cc1` the inhibition was inconclusive: 47.5%.
In the case of `Cc1ccc(OCCCC(=O)Nc2nncs2)cc1`, the inhibition is reported as inconclusive: 21.9%.
For `CN(CC(=O)Nc1ccccc1Br)C(=O)CNC(=O)c1ccc(Oc2ccccc2)cc1`, the inhibition was inactive: -25%.
In the case of `Cn1nnnc1Sc1ncnc2scc(-c3ccccc3)c12`, the inhibition is reported as inconclusive: 45.4%.
In the case of `Cc1cc(NS(=O)(=O)c2ccc(NC(=O)c3ccc(Cl)cc3Cl)cc2)no1`, the inhibition is reported as active: 55.2%.
With `COc1ccc(C2=NS(=O)(=O)N(C)C(C(=O)N3CCc4ccccc4C3)=C2)cc1OC` the inhibition was inactive: -11.5%.
In the case of `CCC(CO)Oc1cc(NCc2ccc(Cl)cc2)c2ncn(C(C)C)c2c1` (configuration not stated), the inhibition is reported as active: 106%.
In the case of `CCc1cccc(NC(=O)CCS(=O)(=O)c2cc3c(cc2C)NC(=O)CO3)c1`, the inhibition is reported as active: 134%.
With `CCOC(=O)CNC(=O)CSc1nnc(CCc2nc3ccccc3[nH]2)n1C` the inhibition was inconclusive: 44.5%.
In the case of `Cc1cc(NC(=O)CCCS(=O)(=O)c2nc(-c3cccs3)cc(C(F)(F)F)n2)no1`, the inhibition is reported as inconclusive: 43.1%.
For `CCOC(=O)c1cnc2ccc(C)cc2c1Sc1ccccc1`, the inhibition was inactive: 3.41%.
In the case of `Cc1ccc2cc(CN(Cc3ccc4c(c3)OCO4)Cc3nnnn3Cc3ccco3)c(=O)[nH]c2c1`, the inhibition is reported as inconclusive: 49.8%.
For `Nc1c(N(Cc2ccco2)C(=O)c2cccc(F)c2)c(=O)[nH]c(=O)n1Cc1ccccc1`, the inhibition was inactive: 6.01%.
With `O=c1c2[nH]c3ccccc3c2ncn1C1CCCCC1` the inhibition was inactive: 2.85%.
With `COc1cccc(NC(=O)C(=O)NCCC2CCCCN2S(=O)(=O)c2ccccc2)c1` (configuration not stated) the inhibition was inactive: -10.7%.
With `Cc1occc1C(=O)N/N=C/C1=C(N2CCOCC2)C(=C/c2ccc(Cl)cc2Cl)/CC1` the inhibition was active: 133%.
With `CCN(CC)C(=O)c1cc(-c2ccc(Br)cc2)on1` the inhibition was inconclusive: 34.7%.
For `O=C(NCCNC(=O)c1ccc([N+](=O)[O-])cc1)c1ccncc1`, the inhibition was inconclusive: 45.3%.
In the case of `CCN(C(=O)CN1CCCC(C)C1)c1c(N)n(Cc2ccccc2)c(=O)[nH]c1=O` (configuration not stated), the inhibition is reported as inconclusive: 23.6%.
For `Oc1ccc(Cl)cc1CNCC1CCCO1` (configuration not stated), the inhibition was inconclusive: 34.1%.
For `COc1cccc(C(=O)Nc2cc3c(cc2Br)OCCCO3)c1`, the inhibition was inconclusive: 44.5%.
In the case of `CCOc1ccc2cc(/C=C/C(=O)c3ccco3)c(Cl)nc2c1`, the inhibition is reported as inconclusive: 42%.
For `O=c1cc(-c2ccccc2)nc2nc(-c3ccccc3)[nH]n12`, the inhibition was inconclusive: 32.3%.
In the case of `COc1ccc(OCc2nnc(SCC(=O)Nc3cccc(Cl)c3)o2)cc1`, the inhibition is reported as active: 51.4%.
For `COc1cc(CNc2ccc3[nH]c(=O)[nH]c3c2)ccc1OCc1ccccc1F`, the inhibition was inconclusive: 46%.
In the case of `Cn1c(=O)c2c(nc(CN3CCN(C(c4ccccc4)c4ccccc4)CC3)n2CC(N)=O)n(C)c1=O`, the inhibition is reported as inconclusive: 35%.
With `O=C(NCCCN1CCOCC1)c1ccc2c(c1)N(Cc1ccccc1)C(=O)c1ccccc1S2=O` (configuration not stated) the inhibition was inactive: 3.15%.
For `Cc1ccc(NC(=O)Cn2ncn3c(cc4ccccc43)c2=O)c(C)c1`, the inhibition was inconclusive: 40.4%.
With `Cc1ccc(F)c(CNC(=O)C2CCC(=O)N(CCCN3CCCC3=O)C2)c1F` (configuration not stated) the inhibition was inconclusive: 34.5%.
In the case of `CC(C)OC(=O)c1sc2nc(-c3ccccc3)ccc2c1N`, the inhibition is reported as inconclusive: 37.2%.
With `O=C(NNC(=O)c1c(F)cccc1F)c1ccccc1OC(F)(F)F` the inhibition was inconclusive: 29.5%.
With `Cc1nc(NC(=O)C(C)Oc2cccc(Cl)c2)sc1C(=O)N(C)C` (configuration not stated) the inhibition was active: 52.4%.
For `COc1ccc(C=C(c2nc3ccccc3s2)c2nc3ccccc3s2)cc1O`, the inhibition was inactive: -1.44%.
For `Cc1ccc(S(=O)(=O)Nc2cccc(C(=O)N3CCN(c4ccccc4O)CC3)c2)cc1F`, the inhibition was inconclusive: 33%.
With `C=CCNc1sc(C(=O)c2ccc(Br)s2)c(N)c1C#N` the inhibition was active: 111%.
For `COC(=O)Cn1cc(C(=O)C2CC2)c2ccccc21`, the inhibition was inconclusive: 23.1%.
With `Cc1cc(-c2nnc(SCC(=O)c3ccc(Cl)cc3)o2)no1` the inhibition was active: 91.5%.
For `COc1ccccc1C(=O)Nc1ccc2c(c1)nc(CN1CCN(C(C)=O)CC1)n2C`, the inhibition was inconclusive: 37.1%.
With `CC(=O)CC(=O)NC1C2CC3CC(C2)CC1C3` (configuration not stated) the inhibition was inconclusive: 41.1%.
In the case of `CC(C)[C@H](NC(=O)c1ccco1)C(=O)OCC(=O)c1ccc2c(c1)NC(=O)CO2`, the inhibition is reported as inactive: -0.682%.
For `COC(=O)c1ccc(C(=O)OC)c(NS(C)(=O)=O)c1`, the inhibition was active: 72.3%.
With `Cc1nc2ccc(C(=O)NCCc3c[nH]c4ccccc34)cn2c1N(C)C(=O)CCc1ccccc1` the inhibition was active: 54%.
In the case of `C=C[C@]1(C)C[C@@H](OC(=O)CSCCN(CC)CC)[C@]2(C)C(C)CC[C@]3(CCC(=O)[C@H]32)[C@@H](C)[C@@H]1O` (some centres not stated), the inhibition is reported as inconclusive: 47.7%.
In the case of `O=C(N/N=C/c1ccco1)c1cc(C2CC2)[nH]n1`, the inhibition is reported as inconclusive: 39.1%.
With `O=C1c2ccccc2C(=O)N1CC#CCN1CCN(C2CCCCC2)CC1` the inhibition was inconclusive: 28.7%.
